Results are given in words; binding and its absence hold for the method and conditions named. In cells and extracts the contact can be indirect.
Target: T1, Tumor necrosis factor receptor-associated factor 2 (human (endogenous in HT1080)) (UniProt Q12933)
T1 sequence: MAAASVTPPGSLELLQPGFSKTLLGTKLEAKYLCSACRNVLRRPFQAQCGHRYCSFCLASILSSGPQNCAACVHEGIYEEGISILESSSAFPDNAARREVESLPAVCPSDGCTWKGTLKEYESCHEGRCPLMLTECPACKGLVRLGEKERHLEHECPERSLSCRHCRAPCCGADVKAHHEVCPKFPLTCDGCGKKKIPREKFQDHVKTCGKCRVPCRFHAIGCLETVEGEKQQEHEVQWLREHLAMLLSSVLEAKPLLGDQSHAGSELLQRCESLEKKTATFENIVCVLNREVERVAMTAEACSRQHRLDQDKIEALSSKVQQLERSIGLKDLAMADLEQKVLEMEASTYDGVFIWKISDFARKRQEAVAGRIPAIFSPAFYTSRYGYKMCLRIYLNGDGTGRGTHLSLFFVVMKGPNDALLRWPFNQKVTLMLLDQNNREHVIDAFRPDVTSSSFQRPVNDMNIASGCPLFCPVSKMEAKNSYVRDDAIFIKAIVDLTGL
Test: co-IP; endogenous proteins; HT1080 cell extracts immunoprecipitated with anti-TRAF2 antibody, then immunoblotting; cells treated with 50 ng/mL TNF-α for the indicated periods (Figure 5A) or, after control siRNA, with TNF-α and cycloheximide for 4 h (Figure 6C)

Amino acid sequences for entries named in this document (tags omitted).
UniProt Q9Y6D6: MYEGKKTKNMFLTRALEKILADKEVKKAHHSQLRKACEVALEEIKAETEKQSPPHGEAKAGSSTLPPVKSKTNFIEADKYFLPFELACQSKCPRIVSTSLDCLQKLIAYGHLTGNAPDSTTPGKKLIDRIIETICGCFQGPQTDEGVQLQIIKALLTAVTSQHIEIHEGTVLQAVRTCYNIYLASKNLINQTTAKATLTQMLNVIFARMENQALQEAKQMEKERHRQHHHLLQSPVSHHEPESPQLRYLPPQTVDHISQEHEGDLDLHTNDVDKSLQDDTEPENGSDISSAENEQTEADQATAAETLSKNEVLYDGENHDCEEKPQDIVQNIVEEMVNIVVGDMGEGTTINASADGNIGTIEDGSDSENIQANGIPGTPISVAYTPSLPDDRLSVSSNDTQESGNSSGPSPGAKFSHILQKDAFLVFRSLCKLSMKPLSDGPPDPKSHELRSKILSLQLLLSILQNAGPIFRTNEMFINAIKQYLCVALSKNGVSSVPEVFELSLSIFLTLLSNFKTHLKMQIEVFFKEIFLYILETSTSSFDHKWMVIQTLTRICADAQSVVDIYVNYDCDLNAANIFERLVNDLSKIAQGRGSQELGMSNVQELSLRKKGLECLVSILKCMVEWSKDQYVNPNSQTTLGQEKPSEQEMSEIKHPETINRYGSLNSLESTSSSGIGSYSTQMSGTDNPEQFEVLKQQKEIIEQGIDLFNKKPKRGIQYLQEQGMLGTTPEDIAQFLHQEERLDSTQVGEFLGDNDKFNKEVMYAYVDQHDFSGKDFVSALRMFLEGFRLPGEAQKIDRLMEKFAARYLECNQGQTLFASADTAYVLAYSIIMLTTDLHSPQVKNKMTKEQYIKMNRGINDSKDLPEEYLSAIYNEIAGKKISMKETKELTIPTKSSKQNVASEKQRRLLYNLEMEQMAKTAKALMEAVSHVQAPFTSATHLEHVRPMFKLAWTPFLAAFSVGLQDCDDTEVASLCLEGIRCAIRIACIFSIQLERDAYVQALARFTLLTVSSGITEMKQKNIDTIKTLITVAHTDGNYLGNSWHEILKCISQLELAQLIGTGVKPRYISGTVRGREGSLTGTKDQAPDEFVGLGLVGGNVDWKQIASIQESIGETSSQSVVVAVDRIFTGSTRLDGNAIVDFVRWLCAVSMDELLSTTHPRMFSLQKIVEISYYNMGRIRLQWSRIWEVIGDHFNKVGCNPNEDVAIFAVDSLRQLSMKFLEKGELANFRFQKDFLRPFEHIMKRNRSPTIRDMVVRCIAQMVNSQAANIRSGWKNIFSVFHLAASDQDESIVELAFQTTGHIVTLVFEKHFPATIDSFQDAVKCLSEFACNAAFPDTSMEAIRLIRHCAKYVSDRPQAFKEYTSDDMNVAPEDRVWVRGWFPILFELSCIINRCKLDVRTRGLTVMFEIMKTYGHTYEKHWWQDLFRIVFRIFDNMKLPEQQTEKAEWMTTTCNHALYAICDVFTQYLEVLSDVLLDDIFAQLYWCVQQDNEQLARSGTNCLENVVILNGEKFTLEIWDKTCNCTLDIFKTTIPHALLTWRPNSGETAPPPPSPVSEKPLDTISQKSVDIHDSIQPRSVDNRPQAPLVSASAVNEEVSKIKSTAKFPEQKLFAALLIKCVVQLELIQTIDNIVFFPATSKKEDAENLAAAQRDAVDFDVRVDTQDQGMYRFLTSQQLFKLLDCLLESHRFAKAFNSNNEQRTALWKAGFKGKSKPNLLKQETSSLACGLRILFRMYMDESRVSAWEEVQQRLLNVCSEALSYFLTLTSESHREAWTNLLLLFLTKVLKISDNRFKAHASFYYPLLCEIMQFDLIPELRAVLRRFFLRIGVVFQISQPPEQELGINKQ

For “Brefeldin A-inhibited guanine nucleotide-exchange factor 1 (from UniProt Q9Y6D6 1-1849)”, the binding was “no binding”.

From publication PMC5133869
